Among the data in article PMC6510753 are binding values, retold here.

Results are given in words; binding and its absence hold for the method and conditions named. In cells and extracts the contact can be indirect. Binding can be weak; no strength is given. Tags and fused reporters may be left off the sequences shown.

This assay addresses free fatty acid receptor 1 (FFAR1). The assay is described as follows: co-IP; HEK293 co-transfected with PDE4A5-vsv, GPR40 and arrestin-2; cells treated with 500 μM palmitic acid for various times; lysates in 1% Nonidet P-40, 150 mM NaCl, 1 mM EDTA, 10 mM Tris-HCl pH 8.0; IP with anti-Flag, immunoblot with anti-Vsv and ARB2. In general terms: Immunoblotting shows a protein as a band on a membrane.

B1: phosphodiesterase 4A5 (PDE4A5), VSV-tagged (enzyme, UniProt P54748-1 1-844)
chain: MEPPAAPSERSLSLSLPGPREGQATLKPPPQHLWRQPRTPIRIQQRGYPDSAERSETERSPHRPIERADAVDTGDRPGLRTTRMSWPSSFHGTGTGGGSSRRLEAENGPTPSPGRSPLDSQASPGLVLHAGATTSQRRESFLYRSDSDYDMSPKAVSRSSSVASEAHAEDLIVTPFAQVLASLRSVRSNFSLLTNVPIPSNKRSPLGGPPSVCKATLSEETCQQLARETLEELDWCLEQLETMQTYRSVSEMASHKFKRMLNRELTHLSEMSRSGNQVSEYISNTFLDKQNEVEIPSPTPRQRAFQQPPPSVLRQSQPMSQITGLKKLVHTGSLNTNVPRFGVKTDQEDLLAQELENLSKWGLNIFCVSEYAGGRSLSCIMYTIFQERDLLKKFHIPVDTMMMYMLTLEDHYHADVAYHNSLHAADVLQSTHVLLATPALDAVFTDLEILAALFAAAIHDVDHPGVSNQFLINTNSELALMYNDESVLENHHLAVGFKLLQEENCDIFQNLSKRQRQSLRKMVIDMVLATDMSKHMTLLADLKTMVETKKVTSSGVLLLDNYSDRIQVLRNMVHCADLSNPTKPLELYRQWTDRIMAEFFQQGDRERERGMEISPMCDKHTASVEKSQVGFIDYIVHPLWETWADLVHPDAQDILDTLEDNRDWYHSAIRQSPSPPLEEEPGGLGHPSLPDKFQFELTLEEEEEEDSLEVPGLPTTEETFLAAEDARAQAVDWSKVKGPSTTVVEVAERLKQETASAYGAPQESMEAVGCSFSPGTPILPDVRTLSSSEEAPGLLGLPSTAAEVEAPRDHLAATRACSACSGTSGDNSAIISAPGRWGSGGDPA
On to B1, for which the binding result is recorded as “binds”.
